{"sequences": {"note": "By UniProt entry, the sequences of proteins in these tests, tags left out.", "UniProt O88477, whole entry": "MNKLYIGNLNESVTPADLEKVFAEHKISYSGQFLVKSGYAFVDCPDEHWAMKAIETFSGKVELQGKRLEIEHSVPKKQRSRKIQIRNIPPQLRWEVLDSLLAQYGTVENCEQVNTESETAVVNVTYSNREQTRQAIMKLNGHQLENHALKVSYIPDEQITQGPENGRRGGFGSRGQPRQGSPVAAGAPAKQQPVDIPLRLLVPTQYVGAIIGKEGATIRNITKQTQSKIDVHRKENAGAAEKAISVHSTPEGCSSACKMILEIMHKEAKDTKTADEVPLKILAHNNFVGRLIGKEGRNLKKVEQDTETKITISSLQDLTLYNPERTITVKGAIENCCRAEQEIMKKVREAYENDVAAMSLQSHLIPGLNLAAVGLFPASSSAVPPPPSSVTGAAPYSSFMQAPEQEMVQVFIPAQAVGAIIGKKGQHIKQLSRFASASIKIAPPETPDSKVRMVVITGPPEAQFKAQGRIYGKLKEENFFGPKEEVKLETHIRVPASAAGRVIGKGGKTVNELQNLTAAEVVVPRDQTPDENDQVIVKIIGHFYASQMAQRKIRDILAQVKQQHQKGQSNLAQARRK"}, "source": "paper PMC3951440", "about": "“Assessing Specific Oligonucleotides and Small Molecule Antibiotics for the Ability to Inhibit the CRD-BP-CD44 RNA Interaction” (PLoS ONE, 2014)", "molecular_target": "CRD-BP (IMP1) (mouse) (UniProt O88477)", "test": "EMSA", "conditions": "EMSA: 5 mM Tris-Cl pH 7.4, 2.5 mM EDTA, 2 mM DTT, 5% glycerol, 0.1 mg/ml BSA, 0.5 mg/ml yeast tRNA, 5 U RNasin, 30 C with ice steps, 40 nM RNA probe, recombinant protein, residues 1-577, protein details: N-terminal FLAG, C-terminal 6xHis, label: 32P-UTP internal, probe letters rebuilt from the primers and the genome"}
{"sequence": "GGGAUGAGUUAAGUGCCUGGGGAGUCCCUCAAAAGGUUAAAGGGAUUCCCAUCAUUGGAAUCUUAUCACCAGAUAGGCAAGUUUAUGACCAAACAAGAGAGUACUGGCUUUAUCCUCUAACCUCAUAUUUUCUCCCACUUGGCAAGUCCUUUGUGGCAUUUAUUCAUCAGUCAGGGUGUCCGAUUGGUCCUAGAACUUCCAAAGGCUGCUUGUCAUAGAAGCCAUUGCAUCUAUAAAGCAACGGCUCCUGUUAAAUGGUAUCUCCUUUCUGAGGCUCCUACUAAAAGUCAUUUGUUACCUAAACUUAUGUG [CD44 Fragment 8 RNA]", "values": [{"measurement": "binding signal", "setting": "269 nM protein", "result": 11.5, "unit": "% bound"}, {"measurement": "binding signal", "setting": "1885 nM protein", "result": 81.4, "unit": "% bound"}]}
